No constants are given. Whether binding was seen depends on the method and setting. In cells and extracts the contact can be indirect. Some results given as binding are weak or reduced against the parent protein; the word gives no strength. Sequences can lack the tags named with a protein.
Target: T1, Mycoplasma hyorhinis major membrane protein p37 (Mycoplasma hyorhinis) (UniProt P15363)
T1 sequence: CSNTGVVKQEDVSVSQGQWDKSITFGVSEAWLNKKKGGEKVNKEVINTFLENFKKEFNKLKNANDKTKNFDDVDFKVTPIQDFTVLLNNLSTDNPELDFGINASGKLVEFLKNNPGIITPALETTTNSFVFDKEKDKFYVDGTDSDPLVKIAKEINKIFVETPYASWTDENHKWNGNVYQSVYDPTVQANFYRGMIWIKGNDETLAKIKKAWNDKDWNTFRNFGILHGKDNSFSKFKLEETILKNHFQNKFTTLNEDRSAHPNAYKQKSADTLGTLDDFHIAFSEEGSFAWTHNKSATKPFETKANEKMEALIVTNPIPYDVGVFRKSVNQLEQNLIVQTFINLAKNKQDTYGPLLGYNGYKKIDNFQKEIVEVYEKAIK
Experiment: co-IP; lysates (500 μg) from M hyorhinis-infected gastric cancer cells immunoprecipitated with 1 μg of PD4 antibody (anti-p37) or pre-immune IgG; input 50 μg of lysates; Western blot for LRP6 and GSK3β

By UniProt entry, the sequences of proteins in these tests, tags left out.
UniProt P49841: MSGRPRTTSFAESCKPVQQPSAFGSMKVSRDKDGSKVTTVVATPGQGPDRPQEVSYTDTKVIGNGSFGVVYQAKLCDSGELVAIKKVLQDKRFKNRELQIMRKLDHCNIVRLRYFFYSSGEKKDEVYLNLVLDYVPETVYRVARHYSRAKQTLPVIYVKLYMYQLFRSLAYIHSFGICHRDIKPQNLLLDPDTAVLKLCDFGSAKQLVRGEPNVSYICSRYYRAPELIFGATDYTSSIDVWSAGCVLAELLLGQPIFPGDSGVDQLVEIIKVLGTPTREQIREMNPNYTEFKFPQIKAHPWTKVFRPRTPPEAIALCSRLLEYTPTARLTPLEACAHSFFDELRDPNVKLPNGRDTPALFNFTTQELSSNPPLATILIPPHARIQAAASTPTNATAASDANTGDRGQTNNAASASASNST

With “GSK3β (from UniProt P49841 1-420) (enzyme)” the binding was “binds”.

Reference: article PMC6718539
